Laboratory results published in patent US20130203080A1 (UNIVERSITE MONTPELLIER 2, published 2013).
Results are given in words; binding and its absence hold for the method and conditions named. Some entries that bind do so weakly or less than the wild type.

Amino acid sequences for entries named in this document (tags omitted). A change or cut given only in a name is not applied to a line headed by its entry.
UniProt P11166: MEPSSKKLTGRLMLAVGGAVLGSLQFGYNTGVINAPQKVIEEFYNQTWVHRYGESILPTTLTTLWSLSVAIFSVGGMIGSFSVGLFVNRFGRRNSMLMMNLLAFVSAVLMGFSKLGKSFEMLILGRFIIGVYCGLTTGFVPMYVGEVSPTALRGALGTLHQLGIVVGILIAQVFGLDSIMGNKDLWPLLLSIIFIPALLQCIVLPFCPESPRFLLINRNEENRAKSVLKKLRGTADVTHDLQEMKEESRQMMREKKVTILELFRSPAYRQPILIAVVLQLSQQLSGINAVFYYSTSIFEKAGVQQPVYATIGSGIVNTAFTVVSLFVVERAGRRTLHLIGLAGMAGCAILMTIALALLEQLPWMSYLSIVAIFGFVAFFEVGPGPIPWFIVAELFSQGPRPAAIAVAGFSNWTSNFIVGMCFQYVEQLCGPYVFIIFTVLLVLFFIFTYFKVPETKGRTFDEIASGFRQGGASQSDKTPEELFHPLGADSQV
UniProt P03383: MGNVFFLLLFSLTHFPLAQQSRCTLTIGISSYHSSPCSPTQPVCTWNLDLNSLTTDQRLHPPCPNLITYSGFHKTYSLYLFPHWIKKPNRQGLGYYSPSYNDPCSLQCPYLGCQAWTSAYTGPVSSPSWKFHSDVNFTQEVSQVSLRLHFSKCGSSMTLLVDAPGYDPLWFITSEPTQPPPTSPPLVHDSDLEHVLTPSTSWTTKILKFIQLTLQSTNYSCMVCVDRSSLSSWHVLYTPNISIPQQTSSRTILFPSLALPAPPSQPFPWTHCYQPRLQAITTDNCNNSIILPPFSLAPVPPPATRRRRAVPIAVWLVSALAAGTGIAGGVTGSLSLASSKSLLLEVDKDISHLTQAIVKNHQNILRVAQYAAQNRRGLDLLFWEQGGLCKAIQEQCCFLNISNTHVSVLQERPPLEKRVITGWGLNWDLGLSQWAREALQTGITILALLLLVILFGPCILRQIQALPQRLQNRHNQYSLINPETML
UniProt P03381: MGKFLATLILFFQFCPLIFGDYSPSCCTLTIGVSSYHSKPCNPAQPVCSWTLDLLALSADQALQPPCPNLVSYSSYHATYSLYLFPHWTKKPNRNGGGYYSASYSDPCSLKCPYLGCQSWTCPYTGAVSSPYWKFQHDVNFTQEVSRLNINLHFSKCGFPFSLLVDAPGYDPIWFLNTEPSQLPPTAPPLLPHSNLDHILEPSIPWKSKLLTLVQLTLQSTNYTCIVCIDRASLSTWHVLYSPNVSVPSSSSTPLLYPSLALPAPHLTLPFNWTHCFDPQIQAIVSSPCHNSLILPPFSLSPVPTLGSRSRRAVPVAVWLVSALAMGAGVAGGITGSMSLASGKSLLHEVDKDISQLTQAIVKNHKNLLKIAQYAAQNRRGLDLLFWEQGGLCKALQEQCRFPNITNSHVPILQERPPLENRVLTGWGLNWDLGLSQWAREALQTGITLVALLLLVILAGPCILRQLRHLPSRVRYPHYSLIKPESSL

Legend:
[1] = target: T1, Glut1 on murine cells (CD4+ T cells; cerebellar cortex sections) (mouse) (UniProt P17809); assay: fluorescence staining of cerebellum cryosections of 16-22 day old mice with RBD-rFc
T1 sequence: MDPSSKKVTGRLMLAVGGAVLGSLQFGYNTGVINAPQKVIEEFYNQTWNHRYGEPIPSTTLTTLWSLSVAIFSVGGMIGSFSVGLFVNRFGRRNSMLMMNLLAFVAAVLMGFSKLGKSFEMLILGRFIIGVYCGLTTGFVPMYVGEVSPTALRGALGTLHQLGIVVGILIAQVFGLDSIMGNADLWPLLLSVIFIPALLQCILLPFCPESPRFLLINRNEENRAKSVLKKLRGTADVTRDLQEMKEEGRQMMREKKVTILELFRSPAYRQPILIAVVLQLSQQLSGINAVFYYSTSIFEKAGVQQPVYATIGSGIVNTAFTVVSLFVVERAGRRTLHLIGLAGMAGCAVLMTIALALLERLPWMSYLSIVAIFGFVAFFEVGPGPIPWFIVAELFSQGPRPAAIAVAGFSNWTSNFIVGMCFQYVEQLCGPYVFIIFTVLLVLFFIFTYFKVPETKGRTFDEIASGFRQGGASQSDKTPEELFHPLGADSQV

[2] = target: T1, Glut1 on murine cells (CD4+ T cells; cerebellar cortex sections) (mouse); assay: fluorescence staining of mouse cerebellum cryosections with RBD-rFc, biotinylated anti-rabbit IgG, Streptavidin-Alexa488
[3] = target: T1, Glut1 on murine cells (CD4+ T cells; cerebellar cortex sections) (mouse); assay: flow cytometry, RBD on murine CD4+ T cells polarised to Th0, Th1, Th2, Th17 or iTreg, day 4
[4] = target: glucose transporter Glut1 on human cells (B cells, B-CLL cells, red blood cells, T cells) (human) (UniProt P11166); assay: flow cytometry, tagged RBD on human red blood cells
[5] = target: glucose transporter Glut1 on human cells (B cells, B-CLL cells, red blood cells, T cells) (human) (UniProt P11166); assay: flow cytometry, tagged RBD on CD19+ cells of healthy donors and B-CLL patients
[6] = target: glucose transporter Glut1 on human cells (B cells, B-CLL cells, red blood cells, T cells) (human) (UniProt P11166); assay: flow cytometry, tagged RBD on unstimulated and TCR-stimulated human T cells

**Q.** Which binding [1] does the source give for “HTLV-RBD soluble RBD-rFc fusion protein (from UniProt P03383 19-224)” here?
**A.** binds

**Q.** And the binding [2]?
**A.** binds

**Q.** For “Human T Leukaemia Virus-1 (HTLV1) Env receptor binding domain, soluble receptor binding ligand (from UniProt P03381 21-228)”, which binding [3] is on record?
**A.** binds

**Q.** For “Human T Leukaemia Virus-2 (HTLV2) Env receptor binding domain, tagged soluble receptor binding ligand (from UniProt P03383 19-224)”, which binding [4] is on record?
**A.** binds

**Q.** And the binding [5]?
**A.** binds

**Q.** And the binding [6]?
**A.** binds
